# Assay results published in the supplement of paper PMC4604168 (melanoma cell lines).
# This is one part of the list. Repeats are few or missing, and single values can be far off.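 Cells were imaged in 1,536-well plates, and nuclei stained with an antibody against cleaved PARP were counted against all DNA-stained nuclei to give the apoptosis fraction. Screening doses were chosen to leave most cells alive, and resting and induced cleaved-PARP levels differ strongly between cell lines.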
# System: MZ2-MEL
# Assay: cleaved PARP positive nuclei fraction relative to DMSO control; melanoma cells; higher = more apoptosis
# Settings: library dose: low library concentration; 72 h
row,Structure (SMILES),cleaved PARP positive nuclei fraction
1,"Nc1nc(F)nc2c1ncn2[C@@H]1O[C@H](CO)[C@@H](O)[C@@H]1O [fludarabine] + NCC(=O)Nc1ccc(-n2nc(C(F)(F)F)cc2-c2ccc3c(ccc4ccccc43)c2)cc1 [OSU03012] (first compound 0.2 µM, partner dose 1 µM)",140%
2,"CC(C)C[C@H](NC(=O)[C@H](Cc1ccccc1)NC(=O)c1cnccn1)B(O)O [Bortezomib] + COc1cc2c(Oc3ccc4[nH]c(C)cc4c3F)ncnc2cc1OCCCN1CCCC1 [cediranib] (first compound 0.001 µM, partner dose 0.4 µM)",168%
3,"CC(C)C[C@H](NC(=O)[C@H](Cc1ccccc1)NC(=O)c1cnccn1)B(O)O [Bortezomib] + C[C@@H]1CCN(C(=O)CC#N)C[C@@H]1N(C)c1ncnc2[nH]ccc12 [CP690550] (first compound 0.001 µM, partner dose 1 µM)",172%
4,"Nc1ccn([C@@H]2O[C@H](CO)[C@@H](O)C2(F)F)c(=O)n1 [gemcitabine] + C=CCn1c(=O)c2cnc(Nc3ccc(N4CCN(C)CC4)cc3)nc2n1-c1cccc(C(C)(C)O)n1 [MK1775] (first compound 0.0004 µM, partner dose 0.02 µM)",144%
5,"CNC(=O)c1cc(Oc2ccc(NC(=O)Nc3ccc(Cl)c(C(F)(F)F)c3)cc2)ccn1 [sorafenib] + COc1cc2c(Oc3ccc4[nH]c(C)cc4c3F)ncnc2cc1OCCCN1CCCC1 [cediranib] (first compound 0.4 µM, partner dose 0.4 µM)",26.4%
